This experiment deals with Thoeris anti-defense 1 (Tad1) from B. subtilis phage SBSphiJ7, C-terminal 8xHis-tag (Bacillus subtilis phage SBSphiJ7). Nature of the experiment: pull-down.

These are yes or no findings as the source states them, for the method shown. In cells and extracts the contact can be indirect.

B1: ThsA of the Bacillus cereus MSX-D12 Thoeris system (enzyme, UniProt J8G6Z1 1-476)
chain: MKMNPIVELFIKDFTKEVMEENAAIFAGAGLSMSVGYVSWAKLLEPIAQEIGLDVNKENDLVSLAQYYCNENQGNRGRINQIILDEFSRKVDLTENHKILARLPIHTYWTTNYDRLIEKALEEENKIADVKYTVKQLATTKVKRDAVVYKMHGDVEHPSEAVLIKDDYEKYSIKMDPYIKALSGDLVSKTFLFVGFSFTDPNLDYILSRVRSAYERDQRRHYCLIKKEERRPDELEADFEYRVRKQELFISDLSRFNIKTIVLNNYNEITEILQRIENNIKTKTVFLSGSAVEYNHWETEHAEQFIHQLSKELIRKDFNIVSGFGLGVGSFVINGVLEELYMNQGTIDDDRLILRPFPQGKKGEEQWDKYRRDMITRTGVSIFLYGNKIDKGQVVKAKGVQSEFNISFEQNNYVVPVGATGYIAKDLWNKVNEEFETYYPGADARMKKLFGELNNEALSIEELINTIIEFVEILSN
On to B1, for which the binding entry is on record as “no binding”.

B2: ThsB (TIR-domain protein) of the Bacillus cereus MSX-D12 Thoeris system (protein, UniProt J8G8J6 1-192)
chain: MAKRVFFSFHYQDVIDFRVNVVRNHWVTKLNQSAAGVFDASLWEDAKKTSDIALKRLINGGLNNTSVTCVLIGSQTFNRRWVRYEIMKSIEKGNKIIGIHINAFKDKYGNIKSKGPNPFDYLGYQYSSDGKQLHLYEWTGGKWEEYKDLAPYRVNQIAPESLRGKFYSLSSVYRVYDWVADDGYNKFSSWVN
Consider B2, for which the binding entry is reported as “no binding”.

Values taken from doi:10.1101/2022.05.03.490397.
